Measurements reported in PubChem BioAssay AID652272 (Drosophila RNAi Screening Center, 2013).
The screen tested about 21,000 reagents; shown is a random part of those with a known target gene and a result. Over the whole deposit, 503 (2.4%) were called active. 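Raw plate light values, not normalised; calls rest on replicate z-scores that were not deposited; hits include reporter decreases as well as increases.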 The numbers tell different reagents against one gene apart. Names joined by + are all predicted targets of the reagent. Not given: the amount of reagent, the time to read-out.

Screen: 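Finding fly genes that regulate Hedgehog signal transduction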 (primary screen)
Cells: Drosophila clone 8 (Cl8) cells
Reagents: long dsRNA against Drosophila genes
Measured: 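Plate reader light from a firefly reporter under a ptc promoter fragment that responds to Hedgehog, with Renilla light as transfection reference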
Scale: firefly Hh reporter signal: higher = more ptc reporter light; Renilla reference signal: higher = more Renilla control light
Rule for the call: 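Hit when the z-score averaged over two replicates is under -2 or over +3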
Meaning of the calls: active = hit: reporter lowered or raised; inactive = not a hit

Target gene	dsRNA no.	firefly Hh reporter signal, replicate 1	firefly Hh reporter signal, replicate 2	firefly Hh reporter signal, replicate 3	Renilla reference signal, replicate 1	Renilla reference signal, replicate 2	Outcome
CG14253	1	80508	77937		2744	2080	inactive
spin (spinster)	1	1.31e5	6.15e5	1.06e5	5031	38921	inactive
CG14130	1	36326	49460	49621	4048	4291	inactive
CG43234 (retired record)	1	1.22e5	2.23e5		3649	9237	inactive
Tsp26A (Tetraspanin 26A)	1	1.47e5	68144		4048	5955	inactive
RhoL (Rho-like)	1	1.63e5	1.01e5		6275	4092	inactive
CG15571	1	64375	1.34e5		1904	4937	inactive
Tektin-A (Tektin A)	1	74993	34986		3282	1833	inactive
CG9016	1	74163	60759		2475	6337	inactive
Tehao	1	1.01e5	42529		2685	4188	inactive
CG4269	1	82042	56480		1604	5175	inactive
smash (smallish)	1	1.27e5	90659		4684	1916	inactive
smash (smallish)	2	1.25e5	80480		4568	2038	inactive
smash (smallish)	3	88857	1.47e5		2336	4273	inactive
smash (smallish)	4	1.30e5	1.92e5		3997	5288	inactive
Rap2l (Ras-associated protein 2-like)	1	92385	96988		1803	7302	inactive
CG4287	1	1.37e5	63216		6000	2555	inactive
CG9294	1	74976	41680		2336	4197	inactive
CG17327	1	1.08e5	1.26e5		866	2363	inactive
CG1368	1	96016	91884		1989	2112	inactive
CycC (Cyclin C)	1	1.25e5	85880		6752	3789	inactive
Atf3 (Activating transcription factor 3)	1	53978	43595		4022	1925	active
CG5390	1	1.22e5	40908		3207	4155	inactive
sgll (sugarlethal)	1	64147	80642		2210	2276	inactive
CG12219	1	61264	2.47e5		2013	9184	inactive
sns (sticks and stones)	1	22219	5149		776	816	active
sns (sticks and stones)	2	84498	51587		1476	4880	inactive
sns (sticks and stones)	3	7.35e5	1.20e5		5216	5216	inactive
sns (sticks and stones)	4	1.26e5	66038		3384	5508	inactive
sns (sticks and stones)	5	95994	57703		2453	4962	inactive
sns (sticks and stones)	6	71479	18216		2404	2240	active
Cyp6a16Psi (retired record)	1	87760	41936		1688	4165	inactive
g (garnet)	1	1.00e5	2.25e5		2986	8932	inactive
CG14627	1	63687	1.31e5		2121	5739	inactive
CG7806	1	58346	79798		2227	3181	inactive
sti (sticky)	1	25483	45138	70874	4665	4674	inactive
sti (sticky)	2	29433	33047	59985	3937	4246	inactive
CG13784	1	5.15e5	1.77e5		25932	7712	inactive
CG13784	2	57801	36672		2560	1564	inactive
CG1622	1	98267	94343		2893	2256	inactive
Spn28Da (Serpin 28Da)	1	80563	49505		1969	3872	inactive
CG13982	1	66153	70490		1203	6400	inactive
Zdhhc8 (Zinc finger DHHC-type containing 8)	1	65796	91452		2106	4387	inactive
Zdhhc8 (Zinc finger DHHC-type containing 8)	2	92053	2.48e5		2694	9355	inactive
Sas-6 (Spindle assembly abnormal 6)	1	1.04e5	1.13e5		3895	3316	inactive
CG14340	1	1.06e5	92668		2620	2313	inactive
s-cup (stanley-cup)	1	34375	21442		1329	3037	active
s-cup (stanley-cup)	2	1.04e5	53424		2924	4738	inactive
CG11085	1	1.35e5	3.69e5		4049	12501	inactive
CG13193	1	1.11e5	96752		3177	6183	inactive
CG33493	1	90116	78592	51405	9162	4800	inactive
CG14778	1	1.06e5	2.92e5		4429	11076	inactive
Ranbp16 + Lcch3	1	1.04e5	97136		2019	2044	inactive
Crag	1	1.03e5	90090		2215	2231	inactive
tweek	1	1.30e5	69379		3012	5592	inactive
tweek	2	97017	58324		2409	4609	inactive
tweek	3	61091	69924		2064	2349	inactive

8 entries from above, reformatted:
{"Target gene":"sns (sticks and stones)","dsRNA no.":2,"firefly Hh reporter signal, replicate 1":84498,"firefly Hh reporter signal, replicate 2":51587,"Renilla reference signal, replicate 1":1476,"Renilla reference signal, replicate 2":4880,"Outcome":"inactive"}
{"Target gene":"sns (sticks and stones)","dsRNA no.":3,"firefly Hh reporter signal, replicate 1":7.35e5,"firefly Hh reporter signal, replicate 2":1.20e5,"Renilla reference signal, replicate 1":5216,"Renilla reference signal, replicate 2":5216,"Outcome":"inactive"}
{"Target gene":"sns (sticks and stones)","dsRNA no.":4,"firefly Hh reporter signal, replicate 1":1.26e5,"firefly Hh reporter signal, replicate 2":66038,"Renilla reference signal, replicate 1":3384,"Renilla reference signal, replicate 2":5508,"Outcome":"inactive"}
{"Target gene":"sns (sticks and stones)","dsRNA no.":5,"firefly Hh reporter signal, replicate 1":95994,"firefly Hh reporter signal, replicate 2":57703,"Renilla reference signal, replicate 1":2453,"Renilla reference signal, replicate 2":4962,"Outcome":"inactive"}
{"Target gene":"sns (sticks and stones)","dsRNA no.":6,"firefly Hh reporter signal, replicate 1":71479,"firefly Hh reporter signal, replicate 2":18216,"Renilla reference signal, replicate 1":2404,"Renilla reference signal, replicate 2":2240,"Outcome":"active"}
{"Target gene":"Cyp6a16Psi (retired record)","dsRNA no.":1,"firefly Hh reporter signal, replicate 1":87760,"firefly Hh reporter signal, replicate 2":41936,"Renilla reference signal, replicate 1":1688,"Renilla reference signal, replicate 2":4165,"Outcome":"inactive"}
{"Target gene":"g (garnet)","dsRNA no.":1,"firefly Hh reporter signal, replicate 1":1.00e5,"firefly Hh reporter signal, replicate 2":2.25e5,"Renilla reference signal, replicate 1":2986,"Renilla reference signal, replicate 2":8932,"Outcome":"inactive"}
{"Target gene":"CG14627","dsRNA no.":1,"firefly Hh reporter signal, replicate 1":63687,"firefly Hh reporter signal, replicate 2":1.31e5,"Renilla reference signal, replicate 1":2121,"Renilla reference signal, replicate 2":5739,"Outcome":"inactive"}
